{"source": "patent US20170296668A1", "about": "“METHODS OF INCREASING SOLUBILITY OF POORLY SOLUBLE COMPOUNDS AND METHODS OF MAKING AND USING FORMULATIONS OF SUCH COMPOUND” (VIZURI HEALTH SCIENCES LLC, priority 2009, published 2017)", "experiment": "Boiling of flavonoid in H2O & PS80 slurry", "type": "physicochemical", "details": "2. H2O & PS80 slurry boiled", "note": "At least one compound was matched to its structure with a doubt left.", "data": [{"smiles": "C[C@@H]1O[C@@H](OC[C@H]2O[C@@H](Oc3c(-c4ccc(O)c(O)c4)oc4cc(O)cc(O)c4c3=O)[C@H](O)[C@@H](O)[C@@H]2O)[C@H](O)[C@H](O)[C@H]1O", "note": "[Rutin]", "values": [{"measurement": "SOLUBLE CONC. RANGE (% wt/wt)", "value": "< 0.5", "unit": "%"}]}]}
